Laboratory results published in paper doi:10.1101/2023.04.01.535202, “Three small partner proteins facilitate the type VII-dependent secretion export of an antibacterial nuclease” (bioRxiv, 2023).
Results are given in words; binding and its absence hold for the method and conditions named. Binding seen in cells or lysates may run through a third protein. Some entries that bind do so weakly or less than the wild type.

By UniProt entry, the sequences of proteins in these tests, tags left out. Residues count along the entry.
UniProt Q2G179, residues 1-477: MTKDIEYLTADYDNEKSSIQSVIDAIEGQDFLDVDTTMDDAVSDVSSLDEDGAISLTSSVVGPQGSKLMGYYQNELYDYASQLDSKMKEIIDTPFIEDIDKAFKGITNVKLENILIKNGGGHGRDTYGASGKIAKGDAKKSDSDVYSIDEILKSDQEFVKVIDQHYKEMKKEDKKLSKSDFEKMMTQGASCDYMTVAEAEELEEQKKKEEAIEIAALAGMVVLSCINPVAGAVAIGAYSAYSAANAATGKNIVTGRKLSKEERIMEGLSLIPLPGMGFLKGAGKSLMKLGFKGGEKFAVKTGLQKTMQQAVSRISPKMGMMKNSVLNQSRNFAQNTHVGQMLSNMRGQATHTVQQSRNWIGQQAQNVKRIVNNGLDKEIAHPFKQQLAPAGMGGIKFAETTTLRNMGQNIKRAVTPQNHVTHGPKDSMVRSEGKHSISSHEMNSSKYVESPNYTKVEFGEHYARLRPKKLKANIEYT

B1: EsxB (protein, UniProt Q2G182 1-104)
chain: MGGYKGIKADGGKVDQAKQLAAKTAKDIEACQKQTQQLAEYIEGSDWEGQFANKVKDVLLIMAKFQEELVQPMADHQKAIDNLSQNLAKYDTLSIKQGLDRVNP
B2: EsaE (protein, UniProt Q2G181 1-224)
chain: MKDVKRIDYFSYEELTILGGSKLPLVNFELFDPSNFEEAKAALIEKELVTENDKLTDAGFKVATLVREYISAIVNIRINDMYFAPFSYEKDEYILLSRFKNNGFQIRIINKDIAWWSIVQSYPLLMRQEKSNDWDFKQIDDETLENLNNESIDTIGRVLEIEIYNHQGDPQQSLYNIYEQNDLLFIRYPLKDKVLNVHIGVINTFIRELFGFDTDENHINKAEE

Molecular target: EsaD_(1-477)-his (Staphylococcus aureus) (UniProt Q2G179)
Assay: pull-down + SEC

Binder | binding
B1 | binds
B2 | binds
